{"sequences": {"note": "The chains behind the UniProt entries cited, without tags or fusion partners. Where a name states a change or a piece, a line headed by the entry shows the natural chain unless it says otherwise.", "UniProt Q4G0F5, whole entry": "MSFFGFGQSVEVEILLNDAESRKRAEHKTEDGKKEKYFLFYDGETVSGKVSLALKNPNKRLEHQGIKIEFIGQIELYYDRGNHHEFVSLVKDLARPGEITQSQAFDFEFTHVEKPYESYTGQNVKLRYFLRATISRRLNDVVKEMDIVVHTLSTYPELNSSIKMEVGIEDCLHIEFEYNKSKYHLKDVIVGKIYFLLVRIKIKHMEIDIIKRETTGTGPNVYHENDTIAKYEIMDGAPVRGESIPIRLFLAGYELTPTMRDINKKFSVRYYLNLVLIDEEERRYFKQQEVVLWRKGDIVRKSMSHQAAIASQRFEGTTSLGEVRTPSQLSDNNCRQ", "UniProt Q9HA47": "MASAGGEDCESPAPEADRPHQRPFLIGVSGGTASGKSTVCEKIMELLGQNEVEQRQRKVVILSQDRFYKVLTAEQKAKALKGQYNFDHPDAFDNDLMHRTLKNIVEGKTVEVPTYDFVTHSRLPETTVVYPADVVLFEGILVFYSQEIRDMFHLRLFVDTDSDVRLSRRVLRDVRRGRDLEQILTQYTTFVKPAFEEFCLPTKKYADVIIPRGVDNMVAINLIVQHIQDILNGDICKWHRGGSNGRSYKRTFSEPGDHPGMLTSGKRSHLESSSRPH", "UniProt Q969T9": "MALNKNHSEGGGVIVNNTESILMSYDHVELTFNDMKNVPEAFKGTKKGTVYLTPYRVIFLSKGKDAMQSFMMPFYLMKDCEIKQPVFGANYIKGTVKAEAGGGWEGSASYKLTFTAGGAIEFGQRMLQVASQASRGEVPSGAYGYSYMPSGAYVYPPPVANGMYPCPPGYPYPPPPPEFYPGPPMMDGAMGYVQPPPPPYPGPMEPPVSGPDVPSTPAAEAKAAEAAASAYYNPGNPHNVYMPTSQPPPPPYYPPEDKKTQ", "UniProt P22415": "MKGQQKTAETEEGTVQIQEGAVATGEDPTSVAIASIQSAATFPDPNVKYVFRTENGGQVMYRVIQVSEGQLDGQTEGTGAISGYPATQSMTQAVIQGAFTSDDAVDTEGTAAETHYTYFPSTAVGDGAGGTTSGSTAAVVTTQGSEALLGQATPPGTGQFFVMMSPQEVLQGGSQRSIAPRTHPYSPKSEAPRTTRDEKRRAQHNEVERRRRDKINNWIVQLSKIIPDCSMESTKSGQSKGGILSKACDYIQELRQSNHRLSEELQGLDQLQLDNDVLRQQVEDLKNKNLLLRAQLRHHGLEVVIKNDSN", "UniProt O96006": "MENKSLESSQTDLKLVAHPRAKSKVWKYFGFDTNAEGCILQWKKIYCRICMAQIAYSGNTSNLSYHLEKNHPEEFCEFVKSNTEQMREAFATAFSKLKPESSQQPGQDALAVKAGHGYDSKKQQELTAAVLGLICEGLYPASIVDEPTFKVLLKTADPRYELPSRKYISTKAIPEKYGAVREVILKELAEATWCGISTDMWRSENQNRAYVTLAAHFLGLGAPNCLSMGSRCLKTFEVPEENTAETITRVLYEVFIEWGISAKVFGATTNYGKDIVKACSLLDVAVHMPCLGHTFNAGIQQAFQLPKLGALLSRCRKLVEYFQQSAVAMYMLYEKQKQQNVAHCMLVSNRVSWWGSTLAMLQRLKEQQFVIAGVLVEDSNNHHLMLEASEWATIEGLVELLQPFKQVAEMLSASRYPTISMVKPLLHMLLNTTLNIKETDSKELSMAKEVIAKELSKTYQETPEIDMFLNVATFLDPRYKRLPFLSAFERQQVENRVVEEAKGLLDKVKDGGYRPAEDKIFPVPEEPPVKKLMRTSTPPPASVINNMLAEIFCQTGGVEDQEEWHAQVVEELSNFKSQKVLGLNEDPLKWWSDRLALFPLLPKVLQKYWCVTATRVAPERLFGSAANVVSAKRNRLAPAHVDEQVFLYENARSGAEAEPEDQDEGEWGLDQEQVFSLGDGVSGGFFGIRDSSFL", "UniProt Q96RL1": "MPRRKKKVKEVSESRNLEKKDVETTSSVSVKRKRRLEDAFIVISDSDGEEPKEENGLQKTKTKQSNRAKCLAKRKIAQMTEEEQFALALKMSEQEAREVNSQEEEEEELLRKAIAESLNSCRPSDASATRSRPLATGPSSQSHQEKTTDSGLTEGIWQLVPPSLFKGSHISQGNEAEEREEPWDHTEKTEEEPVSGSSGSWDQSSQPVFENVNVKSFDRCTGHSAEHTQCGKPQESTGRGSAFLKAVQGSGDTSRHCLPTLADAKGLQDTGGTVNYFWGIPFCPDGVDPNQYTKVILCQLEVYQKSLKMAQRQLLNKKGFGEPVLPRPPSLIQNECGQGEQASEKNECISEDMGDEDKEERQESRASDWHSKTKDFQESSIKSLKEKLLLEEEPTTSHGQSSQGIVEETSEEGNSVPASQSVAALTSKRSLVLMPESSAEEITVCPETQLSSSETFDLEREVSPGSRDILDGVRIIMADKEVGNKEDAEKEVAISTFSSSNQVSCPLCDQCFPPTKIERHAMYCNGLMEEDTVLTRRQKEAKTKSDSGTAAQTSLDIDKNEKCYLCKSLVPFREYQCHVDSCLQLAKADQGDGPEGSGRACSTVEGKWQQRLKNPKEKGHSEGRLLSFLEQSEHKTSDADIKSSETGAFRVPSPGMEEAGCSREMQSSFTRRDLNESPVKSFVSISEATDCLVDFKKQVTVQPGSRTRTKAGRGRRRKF", "UniProt P47985": "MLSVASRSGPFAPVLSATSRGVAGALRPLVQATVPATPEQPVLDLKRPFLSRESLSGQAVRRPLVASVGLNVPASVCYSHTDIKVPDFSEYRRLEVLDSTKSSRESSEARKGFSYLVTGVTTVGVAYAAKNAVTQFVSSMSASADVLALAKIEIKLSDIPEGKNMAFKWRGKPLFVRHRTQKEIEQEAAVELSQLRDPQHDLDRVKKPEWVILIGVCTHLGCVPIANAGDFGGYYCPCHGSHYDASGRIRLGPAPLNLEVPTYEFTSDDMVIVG", "UniProt Q6PJT7": "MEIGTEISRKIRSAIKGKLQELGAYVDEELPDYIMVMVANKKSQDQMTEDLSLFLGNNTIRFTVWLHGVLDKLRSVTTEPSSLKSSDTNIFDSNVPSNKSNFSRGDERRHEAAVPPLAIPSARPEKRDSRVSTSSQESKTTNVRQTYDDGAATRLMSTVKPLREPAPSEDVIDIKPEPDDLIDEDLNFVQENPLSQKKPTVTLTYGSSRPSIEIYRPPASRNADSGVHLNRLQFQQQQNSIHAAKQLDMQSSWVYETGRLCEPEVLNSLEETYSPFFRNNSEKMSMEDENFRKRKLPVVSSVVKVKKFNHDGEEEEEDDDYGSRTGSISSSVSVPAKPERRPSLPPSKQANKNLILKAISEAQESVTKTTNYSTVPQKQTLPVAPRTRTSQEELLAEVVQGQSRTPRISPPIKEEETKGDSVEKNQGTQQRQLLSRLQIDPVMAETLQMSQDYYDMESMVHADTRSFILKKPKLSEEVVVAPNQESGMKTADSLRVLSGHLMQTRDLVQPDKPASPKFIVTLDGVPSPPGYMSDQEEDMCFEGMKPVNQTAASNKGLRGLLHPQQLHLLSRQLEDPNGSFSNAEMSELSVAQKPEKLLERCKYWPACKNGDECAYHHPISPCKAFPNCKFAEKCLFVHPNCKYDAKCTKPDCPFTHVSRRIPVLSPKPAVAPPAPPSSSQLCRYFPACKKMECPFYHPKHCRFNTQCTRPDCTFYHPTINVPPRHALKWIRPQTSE", "UniProt O95785": "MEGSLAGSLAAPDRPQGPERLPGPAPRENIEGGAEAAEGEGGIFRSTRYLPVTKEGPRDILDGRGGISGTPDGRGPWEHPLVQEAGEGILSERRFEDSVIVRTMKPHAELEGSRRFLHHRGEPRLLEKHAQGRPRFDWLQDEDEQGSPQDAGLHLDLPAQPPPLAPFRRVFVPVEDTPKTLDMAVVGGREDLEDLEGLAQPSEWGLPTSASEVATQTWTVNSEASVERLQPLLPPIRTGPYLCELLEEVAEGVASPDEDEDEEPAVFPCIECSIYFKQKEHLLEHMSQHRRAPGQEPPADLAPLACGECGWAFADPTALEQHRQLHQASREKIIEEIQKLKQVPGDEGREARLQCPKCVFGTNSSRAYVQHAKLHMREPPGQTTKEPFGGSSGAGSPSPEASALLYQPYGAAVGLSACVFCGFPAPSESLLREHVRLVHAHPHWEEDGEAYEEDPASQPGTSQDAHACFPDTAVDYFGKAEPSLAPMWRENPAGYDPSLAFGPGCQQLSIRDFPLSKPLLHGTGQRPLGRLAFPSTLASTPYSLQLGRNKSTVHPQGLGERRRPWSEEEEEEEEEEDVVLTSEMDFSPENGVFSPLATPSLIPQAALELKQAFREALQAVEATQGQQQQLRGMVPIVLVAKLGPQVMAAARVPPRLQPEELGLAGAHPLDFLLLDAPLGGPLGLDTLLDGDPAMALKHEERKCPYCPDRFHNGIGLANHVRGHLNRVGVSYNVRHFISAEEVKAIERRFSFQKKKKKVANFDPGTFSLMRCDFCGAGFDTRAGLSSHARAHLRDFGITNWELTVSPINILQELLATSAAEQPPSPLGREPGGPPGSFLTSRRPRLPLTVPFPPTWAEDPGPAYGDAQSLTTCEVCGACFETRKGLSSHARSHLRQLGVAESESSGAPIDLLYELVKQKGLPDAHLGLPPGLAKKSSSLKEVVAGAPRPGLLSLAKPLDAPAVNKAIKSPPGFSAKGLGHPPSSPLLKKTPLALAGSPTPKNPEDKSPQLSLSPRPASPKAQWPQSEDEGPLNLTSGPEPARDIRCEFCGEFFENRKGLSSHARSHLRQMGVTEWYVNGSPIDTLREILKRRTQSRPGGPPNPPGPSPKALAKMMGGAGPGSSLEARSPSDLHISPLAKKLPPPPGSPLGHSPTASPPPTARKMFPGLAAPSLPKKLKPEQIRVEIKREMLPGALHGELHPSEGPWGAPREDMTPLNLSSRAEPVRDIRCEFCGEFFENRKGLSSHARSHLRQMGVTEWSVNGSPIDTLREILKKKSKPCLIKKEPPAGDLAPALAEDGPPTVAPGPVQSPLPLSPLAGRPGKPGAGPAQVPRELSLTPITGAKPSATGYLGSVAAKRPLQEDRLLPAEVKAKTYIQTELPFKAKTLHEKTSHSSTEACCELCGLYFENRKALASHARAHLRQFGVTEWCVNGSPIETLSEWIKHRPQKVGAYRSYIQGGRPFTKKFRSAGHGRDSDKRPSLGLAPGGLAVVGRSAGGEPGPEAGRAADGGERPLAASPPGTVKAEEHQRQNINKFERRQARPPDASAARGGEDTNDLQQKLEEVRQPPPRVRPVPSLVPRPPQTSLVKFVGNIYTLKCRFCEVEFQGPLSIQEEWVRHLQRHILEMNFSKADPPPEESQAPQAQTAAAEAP", "UniProt Q14694, whole entry": "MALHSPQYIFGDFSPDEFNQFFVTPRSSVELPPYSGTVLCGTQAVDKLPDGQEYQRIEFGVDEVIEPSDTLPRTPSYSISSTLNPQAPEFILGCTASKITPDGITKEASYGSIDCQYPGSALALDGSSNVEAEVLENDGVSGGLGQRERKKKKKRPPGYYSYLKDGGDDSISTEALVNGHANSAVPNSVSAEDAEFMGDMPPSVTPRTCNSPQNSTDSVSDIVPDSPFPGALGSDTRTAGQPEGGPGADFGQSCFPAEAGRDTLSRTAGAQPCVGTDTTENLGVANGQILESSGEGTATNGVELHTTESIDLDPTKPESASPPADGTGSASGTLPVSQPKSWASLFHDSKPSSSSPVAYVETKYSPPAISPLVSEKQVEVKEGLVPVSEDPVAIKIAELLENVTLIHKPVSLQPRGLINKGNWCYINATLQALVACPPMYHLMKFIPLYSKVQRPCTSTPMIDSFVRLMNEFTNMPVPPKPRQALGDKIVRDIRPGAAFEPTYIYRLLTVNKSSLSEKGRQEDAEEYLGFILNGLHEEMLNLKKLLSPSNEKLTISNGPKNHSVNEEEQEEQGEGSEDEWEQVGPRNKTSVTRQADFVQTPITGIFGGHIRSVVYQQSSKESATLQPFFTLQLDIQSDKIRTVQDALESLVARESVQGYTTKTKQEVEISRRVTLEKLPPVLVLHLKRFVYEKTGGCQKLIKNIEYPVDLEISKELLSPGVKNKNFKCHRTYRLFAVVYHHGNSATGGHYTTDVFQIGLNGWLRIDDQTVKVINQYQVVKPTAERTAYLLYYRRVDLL", "UniProt O00401, whole entry": "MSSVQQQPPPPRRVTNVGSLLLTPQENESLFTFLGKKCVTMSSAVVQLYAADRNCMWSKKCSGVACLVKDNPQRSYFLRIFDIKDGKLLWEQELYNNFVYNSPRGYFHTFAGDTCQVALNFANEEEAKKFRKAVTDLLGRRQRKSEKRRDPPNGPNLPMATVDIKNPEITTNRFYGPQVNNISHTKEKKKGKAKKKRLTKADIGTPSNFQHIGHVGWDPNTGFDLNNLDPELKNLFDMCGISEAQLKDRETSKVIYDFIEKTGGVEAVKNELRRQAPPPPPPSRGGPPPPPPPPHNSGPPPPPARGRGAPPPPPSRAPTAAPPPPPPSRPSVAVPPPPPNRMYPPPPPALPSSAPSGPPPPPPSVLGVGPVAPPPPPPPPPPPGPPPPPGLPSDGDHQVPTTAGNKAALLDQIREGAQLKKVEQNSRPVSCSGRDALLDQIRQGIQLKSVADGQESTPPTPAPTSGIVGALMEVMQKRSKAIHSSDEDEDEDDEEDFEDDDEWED"}, "source": "the supplement of paper PMC7666118", "note": "This is one part of the list.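 How the source made its calls: active = dose-dependent thermal stabilisation significant by F-test of dose-response against flat model at 10% FDR; inactive = not significant.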"}
{"compound": "Nc1nc2c(ncn2[C@@H]2O[C@H](COP(=O)(O)OP(=O)(O)OP(=O)(O)O)[C@@H](O)[C@H]2O)c(=O)[nH]1", "assay": "dose-dependent thermal stabilisation call (2D-TPP, DLPTP, 10% FDR) (binary (1 = stabilised)); higher = stabilised by the compound", "settings": "system: Jurkat gel-filtered lysate; concentration range 1-500 µM"}
{"target": "VPS26B (UniProt Q4G0F5)", "dose-dependent thermal stabilisation call": "inactive: 0"}
{"target": "ZC3H4 (UniProt Q9UPT8)", "dose-dependent thermal stabilisation call": "inactive: 0"}
{"target": "XAF1 (UniProt Q6GPH4)", "dose-dependent thermal stabilisation call": "inactive: 0"}
{"target": "ZDHHC5 (UniProt Q9C0B5)", "dose-dependent thermal stabilisation call": "inactive: 0"}
{"target": "ZBTB33 (UniProt Q86T24)", "dose-dependent thermal stabilisation call": "inactive: 0"}
{"target": "YEATS4 (UniProt O95619)", "dose-dependent thermal stabilisation call": "inactive: 0"}
{"target": "XPNPEP3 (UniProt Q9NQH7)", "dose-dependent thermal stabilisation call": "inactive: 0"}
{"target": "WDR54 (UniProt Q9H977)", "dose-dependent thermal stabilisation call": "inactive: 0"}
{"target": "UPF3A (UniProt Q9H1J1)", "dose-dependent thermal stabilisation call": "inactive: 0"}
{"target": "WDR62 (UniProt O43379)", "dose-dependent thermal stabilisation call": "inactive: 0"}
{"target": "UCK1 (UniProt Q9HA47)", "dose-dependent thermal stabilisation call": "active: 1"}
{"target": "WBP2 (UniProt Q969T9)", "dose-dependent thermal stabilisation call": "inactive: 0"}
{"target": "USF1 (UniProt P22415)", "dose-dependent thermal stabilisation call": "inactive: 0"}
{"target": "WASF2 (UniProt Q9Y6W5)", "dose-dependent thermal stabilisation call": "inactive: 0"}
{"target": "ZBED1 (UniProt O96006)", "dose-dependent thermal stabilisation call": "inactive: 0"}
{"target": "UIMC1 (UniProt Q96RL1)", "dose-dependent thermal stabilisation call": "inactive: 0"}
{"target": "WAPL (UniProt Q7Z5K2)", "dose-dependent thermal stabilisation call": "inactive: 0"}
{"target": "YARS (UniProt P54577)", "dose-dependent thermal stabilisation call": "active: 1"}
{"target": "UQCRFS1 (UniProt P47985)", "dose-dependent thermal stabilisation call": "inactive: 0"}
{"target": "WDFY1 (UniProt Q8IWB7)", "dose-dependent thermal stabilisation call": "inactive: 0"}
{"target": "UFM1 (UniProt P61960)", "dose-dependent thermal stabilisation call": "inactive: 0"}
{"target": "ZC3H14 (UniProt Q6PJT7)", "dose-dependent thermal stabilisation call": "inactive: 0"}
{"target": "UMPS (UniProt P11172)", "dose-dependent thermal stabilisation call": "inactive: 0"}
{"target": "WAC (UniProt Q9BTA9)", "dose-dependent thermal stabilisation call": "inactive: 0"}
{"target": "UNK (UniProt Q9C0B0)", "dose-dependent thermal stabilisation call": "inactive: 0"}
{"target": "WIZ (UniProt O95785)", "dose-dependent thermal stabilisation call": "inactive: 0"}
{"target": "ZC3H7A (UniProt Q8IWR0)", "dose-dependent thermal stabilisation call": "inactive: 0"}
{"target": "VAV3 (UniProt Q9UKW4)", "dose-dependent thermal stabilisation call": "active: 1"}
{"target": "USP10 (UniProt Q14694)", "dose-dependent thermal stabilisation call": "inactive: 0"}
{"target": "VCP (UniProt P55072)", "dose-dependent thermal stabilisation call": "inactive: 0"}
{"target": "WDR47 (UniProt O94967)", "dose-dependent thermal stabilisation call": "inactive: 0"}
{"target": "VAT1 (UniProt Q99536)", "dose-dependent thermal stabilisation call": "inactive: 0"}
{"target": "UBR5 (UniProt O95071)", "dose-dependent thermal stabilisation call": "inactive: 0"}
{"target": "YRDC (UniProt Q86U90)", "dose-dependent thermal stabilisation call": "inactive: 0"}
{"target": "VPS4B (UniProt O75351)", "dose-dependent thermal stabilisation call": "active: 1"}
{"target": "WASL (UniProt O00401)", "dose-dependent thermal stabilisation call": "inactive: 0"}
